No constants are given. Whether binding was seen depends on the method and setting. For part of these data: Binding seen in cells or lysates may run through a third protein. Some entries that bind do so weakly or less than the wild type.
Key:
transferrin [1] = biological target: T1, transferrin (UniProt P02787 20-698); experiment: native gel or EMSA; native-polyacrylamide gel electrophoresis, gel shift of the transferrin-CD14 complex; both purified
T1 construct: transferrin (serotransferrin), the iron transporter of serum; probably the mature plasma protein; also called Tf; WT-Tf

Amino acid sequences for entries named in this document (tags omitted). Residues count along the entry.
UniProt P02787, residues 20-698: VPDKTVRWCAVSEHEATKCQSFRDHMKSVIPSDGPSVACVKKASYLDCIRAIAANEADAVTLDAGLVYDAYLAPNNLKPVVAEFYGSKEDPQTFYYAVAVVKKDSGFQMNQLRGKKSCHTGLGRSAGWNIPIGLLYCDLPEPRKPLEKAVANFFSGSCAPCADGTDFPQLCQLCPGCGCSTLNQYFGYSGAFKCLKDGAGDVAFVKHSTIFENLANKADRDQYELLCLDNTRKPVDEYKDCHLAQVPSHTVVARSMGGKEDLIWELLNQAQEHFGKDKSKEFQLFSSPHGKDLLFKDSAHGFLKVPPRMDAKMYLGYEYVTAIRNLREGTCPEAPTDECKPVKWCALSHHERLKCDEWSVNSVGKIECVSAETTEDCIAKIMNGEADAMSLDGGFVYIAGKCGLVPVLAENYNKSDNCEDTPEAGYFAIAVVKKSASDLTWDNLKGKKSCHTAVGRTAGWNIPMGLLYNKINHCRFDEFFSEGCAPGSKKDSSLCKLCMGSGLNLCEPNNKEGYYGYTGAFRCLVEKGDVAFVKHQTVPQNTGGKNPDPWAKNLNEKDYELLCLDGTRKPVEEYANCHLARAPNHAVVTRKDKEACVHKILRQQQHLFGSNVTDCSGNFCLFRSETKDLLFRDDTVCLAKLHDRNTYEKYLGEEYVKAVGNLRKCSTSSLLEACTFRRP

[2] = biological target: transferrin (in human PBMCs and primary macrophages) (human (in PBMCs and primary macrophages)) (UniProt P02787); experiment: co-IP; coimmunoprecipitation of transferrin and CD14 in primary macrophages
transferrin [3] = biological target: T1, transferrin; experiment: SPR; BIAcore 2000; transferrin coupled at a CM5 sensor chip, CD14 flowed over; details in the Supplementary Materials (not shown); both purified

B1: cluster of differentiation 14 (CD14) (receptor, UniProt P08571 20-345, looked up)
chain: TTPEPCELDDEDFRCVCNFSEPQPDWSEAFQCVSAVEVEIHAGGLNLEPFLKRVDADADPRQYADTVKALRVRRLTVGAAQVPAQLLVGALRVLAYSRLKELTLEDLKITGTMPPLPLEATGLALSSLRLRNVSWATGRSWLAELQQWLKPGLKVLSIAQAHSPAFSCEQVRAFPALTSLDLSDNPGLGERGLMAALCPHKFPAIQNLALRNTGMETPTGVCAALAAAGVQPHSLDLSHNSLRATVNPSAPRCMWSSALNSLNLSFAGLEQVPKGLPAKLRVLDLSCNRLNRAPQPDELPEVDNLTLDGNPFLVPGTALPHEGSMN
notes: CD14, TLR coreceptor; isolated protein used in SPR and native gel; Probably a soluble recombinant CD14; also called WT-CD14; wild-type CD14
B1 was tested. Which binding (transferrin [1]) did it give?
Its binding is “binds”.

B2: CD14 (in human PBMCs and primary macrophages) (receptor, UniProt P08571 20-345)
chain: TTPEPCELDDEDFRCVCNFSEPQPDWSEAFQCVSAVEVEIHAGGLNLEPFLKRVDADADPRQYADTVKALRVRRLTVGAAQVPAQLLVGALRVLAYSRLKELTLEDLKITGTMPPLPLEATGLALSSLRLRNVSWATGRSWLAELQQWLKPGLKVLSIAQAHSPAFSCEQVRAFPALTSLDLSDNPGLGERGLMAALCPHKFPAIQNLALRNTGMETPTGVCAALAAAGVQPHSLDLSHNSLRATVNPSAPRCMWSSALNSLNLSFAGLEQVPKGLPAKLRVLDLSCNRLNRAPQPDELPEVDNLTLDGNPFLVPGTALPHEGSMN
B2 was tested. Which binding [2] did it give?
Its binding is “binds”.

How did the binding (transferrin [3]) turn out when ELDDEDFRCVCNFSEPQPDWSEAFQCVSAVEVEIHAGGLN [LPS binding region of CD14 N-terminus (CD14N)] was run?
The binding was “binds”.
